These are yes or no findings as the source states them, for the method shown. In cells and extracts the contact can be indirect. These calls come from enrichment with a bait or labelling near it, and not all partners need be listed.
Biological target: full-length, N-terminally FLAG-tagged human SHIP164 (3xFLAG-SHIP164) (human) (UniProt A0JNW5)
Experiment: affinity purification with mass spectrometry; purified 3xFLAG-SHIP164 immobilized on anti-FLAG resin, incubated with Triton X-100 solubilized mouse brain lysate for 16 h at 4°C; washes in 25 mM Hepes pH 7.4, 150 mM NaCl; FLAG-tagged control protein in parallel; shotgun LC-MS/MS; only the target purified

Sequences of proteins named here, by UniProt entry; tags and fusion partners are left off.
UniProt A0JNW5: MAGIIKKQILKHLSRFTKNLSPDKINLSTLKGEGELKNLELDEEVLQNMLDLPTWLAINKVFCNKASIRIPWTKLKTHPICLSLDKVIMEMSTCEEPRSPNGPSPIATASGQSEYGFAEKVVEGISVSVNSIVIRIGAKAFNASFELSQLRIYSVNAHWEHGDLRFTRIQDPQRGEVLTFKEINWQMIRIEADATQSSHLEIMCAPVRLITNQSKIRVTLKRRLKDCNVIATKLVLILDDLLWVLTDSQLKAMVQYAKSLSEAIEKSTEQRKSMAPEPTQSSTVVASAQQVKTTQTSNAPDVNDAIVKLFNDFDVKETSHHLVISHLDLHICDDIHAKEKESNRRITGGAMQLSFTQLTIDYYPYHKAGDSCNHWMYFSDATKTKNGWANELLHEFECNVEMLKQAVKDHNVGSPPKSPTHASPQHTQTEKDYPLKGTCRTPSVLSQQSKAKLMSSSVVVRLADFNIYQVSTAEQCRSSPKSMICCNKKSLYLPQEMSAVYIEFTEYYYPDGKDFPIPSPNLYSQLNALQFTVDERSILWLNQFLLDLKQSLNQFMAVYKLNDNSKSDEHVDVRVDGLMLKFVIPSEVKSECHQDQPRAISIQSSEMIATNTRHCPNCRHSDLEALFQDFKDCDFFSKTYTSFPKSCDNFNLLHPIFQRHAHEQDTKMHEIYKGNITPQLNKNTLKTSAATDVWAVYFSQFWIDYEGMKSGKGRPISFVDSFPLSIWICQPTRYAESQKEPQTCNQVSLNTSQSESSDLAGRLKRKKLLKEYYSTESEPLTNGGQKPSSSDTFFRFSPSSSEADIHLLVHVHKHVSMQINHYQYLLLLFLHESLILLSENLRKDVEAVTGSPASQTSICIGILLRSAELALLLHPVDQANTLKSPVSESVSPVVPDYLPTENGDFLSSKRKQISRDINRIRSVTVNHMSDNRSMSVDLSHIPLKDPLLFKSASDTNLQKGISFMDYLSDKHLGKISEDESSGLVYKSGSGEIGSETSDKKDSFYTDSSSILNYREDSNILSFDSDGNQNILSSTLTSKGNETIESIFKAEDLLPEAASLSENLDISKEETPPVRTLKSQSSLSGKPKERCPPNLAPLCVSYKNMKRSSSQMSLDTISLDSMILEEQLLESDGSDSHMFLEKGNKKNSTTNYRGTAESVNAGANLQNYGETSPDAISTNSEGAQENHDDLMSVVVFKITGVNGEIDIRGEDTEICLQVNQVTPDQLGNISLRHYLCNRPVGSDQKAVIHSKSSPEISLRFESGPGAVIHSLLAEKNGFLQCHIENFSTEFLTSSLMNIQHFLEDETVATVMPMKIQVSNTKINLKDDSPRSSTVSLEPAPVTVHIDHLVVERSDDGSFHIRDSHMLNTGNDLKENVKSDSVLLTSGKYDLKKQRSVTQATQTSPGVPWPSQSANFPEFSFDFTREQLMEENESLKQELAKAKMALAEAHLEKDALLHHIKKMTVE
UniProt P63168: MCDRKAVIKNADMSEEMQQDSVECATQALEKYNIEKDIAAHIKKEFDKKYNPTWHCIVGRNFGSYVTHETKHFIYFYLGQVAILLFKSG

binding: binds
Substance: light chain 1 of cytoplasmic dynein (DYNLL1) (from UniProt P63168 1-89)

— PMC9067936, “SHIP164 is a chorein motif lipid transfer protein that controls endosome–Golgi membrane traffic” (The Journal of Cell Biology, 2022)
